Measurements published in paper PMC4103893.

The chains behind the UniProt entries cited, without tags or fusion partners. Where a name states a change or a piece, a line headed by the entry shows the natural chain unless it says otherwise.
UniProt O35598: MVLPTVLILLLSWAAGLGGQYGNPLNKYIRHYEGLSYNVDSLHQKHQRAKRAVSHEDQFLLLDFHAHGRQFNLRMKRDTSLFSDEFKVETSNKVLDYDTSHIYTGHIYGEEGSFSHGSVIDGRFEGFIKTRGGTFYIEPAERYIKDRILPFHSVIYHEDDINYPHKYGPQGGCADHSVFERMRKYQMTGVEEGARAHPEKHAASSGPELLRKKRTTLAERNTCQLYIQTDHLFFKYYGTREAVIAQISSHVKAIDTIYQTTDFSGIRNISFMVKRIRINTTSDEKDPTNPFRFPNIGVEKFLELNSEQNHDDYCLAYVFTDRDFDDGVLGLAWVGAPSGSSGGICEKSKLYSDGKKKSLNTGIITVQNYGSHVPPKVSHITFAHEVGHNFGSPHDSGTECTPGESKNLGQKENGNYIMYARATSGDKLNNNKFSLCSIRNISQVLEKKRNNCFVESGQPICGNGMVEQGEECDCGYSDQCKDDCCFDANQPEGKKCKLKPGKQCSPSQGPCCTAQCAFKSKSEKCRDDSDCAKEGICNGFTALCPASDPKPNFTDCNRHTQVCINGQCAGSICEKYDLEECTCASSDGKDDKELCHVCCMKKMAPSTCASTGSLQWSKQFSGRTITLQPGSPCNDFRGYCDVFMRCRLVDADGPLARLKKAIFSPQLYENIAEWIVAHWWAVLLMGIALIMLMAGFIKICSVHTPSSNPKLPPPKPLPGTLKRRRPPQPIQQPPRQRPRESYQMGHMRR
UniProt O14672: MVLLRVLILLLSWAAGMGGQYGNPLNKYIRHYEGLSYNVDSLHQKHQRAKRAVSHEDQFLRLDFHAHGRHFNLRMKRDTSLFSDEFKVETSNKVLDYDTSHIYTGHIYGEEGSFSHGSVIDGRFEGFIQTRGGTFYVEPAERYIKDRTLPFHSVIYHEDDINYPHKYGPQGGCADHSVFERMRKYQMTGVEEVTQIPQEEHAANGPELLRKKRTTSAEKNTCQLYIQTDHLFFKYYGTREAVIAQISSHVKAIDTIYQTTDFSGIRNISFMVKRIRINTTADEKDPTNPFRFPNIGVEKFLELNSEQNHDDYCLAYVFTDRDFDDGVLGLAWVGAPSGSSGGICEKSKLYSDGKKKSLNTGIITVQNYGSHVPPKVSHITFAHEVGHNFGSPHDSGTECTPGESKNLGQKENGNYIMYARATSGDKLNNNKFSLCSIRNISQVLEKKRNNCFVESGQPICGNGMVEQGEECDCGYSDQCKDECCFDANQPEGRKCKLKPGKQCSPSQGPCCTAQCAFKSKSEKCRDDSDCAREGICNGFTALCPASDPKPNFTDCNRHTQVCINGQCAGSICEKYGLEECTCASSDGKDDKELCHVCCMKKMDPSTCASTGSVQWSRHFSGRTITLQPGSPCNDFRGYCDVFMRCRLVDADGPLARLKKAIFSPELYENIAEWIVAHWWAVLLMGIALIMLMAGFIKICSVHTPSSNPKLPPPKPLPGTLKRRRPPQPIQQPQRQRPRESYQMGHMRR
UniProt Q99961: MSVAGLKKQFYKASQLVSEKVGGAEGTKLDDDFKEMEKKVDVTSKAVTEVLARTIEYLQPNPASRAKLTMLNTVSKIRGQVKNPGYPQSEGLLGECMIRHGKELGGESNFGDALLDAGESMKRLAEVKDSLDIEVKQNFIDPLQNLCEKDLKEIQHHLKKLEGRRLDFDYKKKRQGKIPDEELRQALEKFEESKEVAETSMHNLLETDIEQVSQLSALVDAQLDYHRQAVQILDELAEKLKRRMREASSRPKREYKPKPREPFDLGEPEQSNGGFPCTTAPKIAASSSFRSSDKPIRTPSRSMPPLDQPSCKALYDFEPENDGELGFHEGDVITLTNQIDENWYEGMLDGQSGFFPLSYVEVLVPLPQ
UniProt P62993: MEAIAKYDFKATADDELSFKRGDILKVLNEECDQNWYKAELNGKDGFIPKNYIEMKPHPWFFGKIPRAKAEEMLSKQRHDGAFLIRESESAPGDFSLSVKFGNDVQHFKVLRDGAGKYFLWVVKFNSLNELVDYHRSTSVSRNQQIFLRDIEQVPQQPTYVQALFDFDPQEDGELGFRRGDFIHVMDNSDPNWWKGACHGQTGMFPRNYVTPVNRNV

Assays:
[1] = molecular target: murine HA-tagged ADAM10 (mouse) (UniProt O35598); assay: co-IP; HEK 293T cells transfected with HA-tagged murine ADAM10 alone or with human Endophilin-A2/EEN; IP with anti-HA (3F10) or anti-EEN (2F5); 1% NP-40 lysis buffer with 5 mM EDTA
[2] = molecular target: ADAM10 (endogenous; form not told) (human (endogenous in PHA blasts and Jurkat cells)) (UniProt O14672); assay: co-IP; endogenous proteins, Jurkat T cells (JE6-1); 2 µg of mAbs against Lck (4/129, 4/215) or ADAM10 (11G2) with Protein G beads; blots with mAb 11G2 or anti-Grb2 (C-23)

Row | binding [1] | binding [2] | Substance
1 | binds | – | human Endophilin-A2/EEN (from UniProt Q99961 1-368)
2 | – | binds | Grb2 (endogenous) (from UniProt P62993 1-217)

These are yes or no findings as the source states them, for the method shown. Binding seen in cells or lysates may run through a third protein. Binding calls can cover weak binding; strength is not graded here.
